The structures given here were assigned with low confidence; some may be wrong.
Assays:
[1] = test system: zymostenol accumulation in EpiSC-derived OPCs (EBP); experiment: GC/MS-based sterol profiling, zymostenol accumulation; settings: read-out: mZymo GCMS EC50, 24 hours, 8 doses from 0.15 nM to 333 nM, listed as 124B*
EpiSC-derived OPCs = experiment: In vitro phenotypic screening of OPCs, MBP high-content imaging; settings: read-out: mOPC EC50; percentage of MBP+ oligodendrocytes; 3 days; 0.5 nM to 1000 nM; listed as 124B*

EC50 [1]: 14 nM | EC50 (EpiSC-derived OPCs): 54 nM
Structure (SMILES): CC(Cc1ccc(C2CCCCO2)c(Cl)c1)CN1CCC2(C1)CS(=O)(=O)C2 (single isomer, unassigned)

From US20240400579A1, “SPIROCYCLIC MODULATORS OF CHOLESTEROL BIOSYNTHESIS AND THEIR USE FOR PROMOTING REMYELINATION” (GENENTECH, INC., priority 2021, published 2024)
